From patent US20110207759A1, “METHOD FOR TREATMENT OF ATHEROSCLEROTIC DISEASE” (priority 2010, published 2011)

System: statin-treated patients with atherosclerotic coronary or vascular disease or coronary risk equivalent
Test: Fasting plasma lipids, glucose and C-reactive protein during treatment;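 further: plasma drawn after an overnight fast, LDL-C determined by direct assay and C-reactive protein by high-sensitivity immunoturbidimetry with monoclonal anti-CRP antibodies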
Settings: mean ± SD; for Glucose: 208 completers; for Fasting glucose, final values: study completion, n=315

Compound | Glucose (2 Months) | Glucose (8 Months) | Glucose (14 Months) | Fasting glucose, final values
O=C1[C@H](CC[C@H](O)c2ccc(F)cc2)[C@@H](c2ccc(O)cc2)N1c1ccc(F)cc1 [Ezetimibe, ezetimibe] | 109.6 ± 39.5 mg/dL | 108.2 ± 27.7 mg/dL | 110.4 ± 33.4 mg/dL | 111.2 ± 33.8 mg/dL
O=C(O)c1cccnc1 [Niacin, niacin] | 109.1 ± 23.9 mg/dL | 107.6 ± 28.1 mg/dL | 107.4 ± 24.9 mg/dL | 111.5 ± 41.0 mg/dL
